Test results from publication doi:10.1101/2020.05.17.100339.

By UniProt entry, the sequences of proteins in these tests, tags left out. Where a name states a change or a piece, a line headed by the entry shows the natural chain unless it says otherwise.
UniProt Q8CJG0: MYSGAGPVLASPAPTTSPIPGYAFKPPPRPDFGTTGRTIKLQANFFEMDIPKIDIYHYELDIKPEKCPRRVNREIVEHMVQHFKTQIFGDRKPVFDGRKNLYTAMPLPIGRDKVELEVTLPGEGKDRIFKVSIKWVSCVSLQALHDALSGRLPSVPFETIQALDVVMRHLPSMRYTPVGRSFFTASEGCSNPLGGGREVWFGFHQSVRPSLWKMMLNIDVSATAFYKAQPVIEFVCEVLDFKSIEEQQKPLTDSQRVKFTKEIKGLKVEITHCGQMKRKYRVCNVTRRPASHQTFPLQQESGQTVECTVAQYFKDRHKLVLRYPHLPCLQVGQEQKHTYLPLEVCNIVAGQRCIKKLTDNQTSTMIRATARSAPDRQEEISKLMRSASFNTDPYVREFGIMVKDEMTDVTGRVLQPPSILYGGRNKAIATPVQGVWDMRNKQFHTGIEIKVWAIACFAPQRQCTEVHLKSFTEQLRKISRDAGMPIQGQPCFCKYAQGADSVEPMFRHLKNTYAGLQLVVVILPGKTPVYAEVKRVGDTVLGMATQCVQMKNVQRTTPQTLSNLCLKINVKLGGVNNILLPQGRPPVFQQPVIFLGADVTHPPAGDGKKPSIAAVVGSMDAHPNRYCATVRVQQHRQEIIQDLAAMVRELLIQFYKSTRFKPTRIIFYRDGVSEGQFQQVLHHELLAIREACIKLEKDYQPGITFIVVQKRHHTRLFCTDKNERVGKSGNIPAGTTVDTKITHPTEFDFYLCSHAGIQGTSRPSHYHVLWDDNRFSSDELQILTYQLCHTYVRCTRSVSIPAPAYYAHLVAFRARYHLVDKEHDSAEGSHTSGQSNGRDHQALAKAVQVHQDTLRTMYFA
UniProt Q3UHK8: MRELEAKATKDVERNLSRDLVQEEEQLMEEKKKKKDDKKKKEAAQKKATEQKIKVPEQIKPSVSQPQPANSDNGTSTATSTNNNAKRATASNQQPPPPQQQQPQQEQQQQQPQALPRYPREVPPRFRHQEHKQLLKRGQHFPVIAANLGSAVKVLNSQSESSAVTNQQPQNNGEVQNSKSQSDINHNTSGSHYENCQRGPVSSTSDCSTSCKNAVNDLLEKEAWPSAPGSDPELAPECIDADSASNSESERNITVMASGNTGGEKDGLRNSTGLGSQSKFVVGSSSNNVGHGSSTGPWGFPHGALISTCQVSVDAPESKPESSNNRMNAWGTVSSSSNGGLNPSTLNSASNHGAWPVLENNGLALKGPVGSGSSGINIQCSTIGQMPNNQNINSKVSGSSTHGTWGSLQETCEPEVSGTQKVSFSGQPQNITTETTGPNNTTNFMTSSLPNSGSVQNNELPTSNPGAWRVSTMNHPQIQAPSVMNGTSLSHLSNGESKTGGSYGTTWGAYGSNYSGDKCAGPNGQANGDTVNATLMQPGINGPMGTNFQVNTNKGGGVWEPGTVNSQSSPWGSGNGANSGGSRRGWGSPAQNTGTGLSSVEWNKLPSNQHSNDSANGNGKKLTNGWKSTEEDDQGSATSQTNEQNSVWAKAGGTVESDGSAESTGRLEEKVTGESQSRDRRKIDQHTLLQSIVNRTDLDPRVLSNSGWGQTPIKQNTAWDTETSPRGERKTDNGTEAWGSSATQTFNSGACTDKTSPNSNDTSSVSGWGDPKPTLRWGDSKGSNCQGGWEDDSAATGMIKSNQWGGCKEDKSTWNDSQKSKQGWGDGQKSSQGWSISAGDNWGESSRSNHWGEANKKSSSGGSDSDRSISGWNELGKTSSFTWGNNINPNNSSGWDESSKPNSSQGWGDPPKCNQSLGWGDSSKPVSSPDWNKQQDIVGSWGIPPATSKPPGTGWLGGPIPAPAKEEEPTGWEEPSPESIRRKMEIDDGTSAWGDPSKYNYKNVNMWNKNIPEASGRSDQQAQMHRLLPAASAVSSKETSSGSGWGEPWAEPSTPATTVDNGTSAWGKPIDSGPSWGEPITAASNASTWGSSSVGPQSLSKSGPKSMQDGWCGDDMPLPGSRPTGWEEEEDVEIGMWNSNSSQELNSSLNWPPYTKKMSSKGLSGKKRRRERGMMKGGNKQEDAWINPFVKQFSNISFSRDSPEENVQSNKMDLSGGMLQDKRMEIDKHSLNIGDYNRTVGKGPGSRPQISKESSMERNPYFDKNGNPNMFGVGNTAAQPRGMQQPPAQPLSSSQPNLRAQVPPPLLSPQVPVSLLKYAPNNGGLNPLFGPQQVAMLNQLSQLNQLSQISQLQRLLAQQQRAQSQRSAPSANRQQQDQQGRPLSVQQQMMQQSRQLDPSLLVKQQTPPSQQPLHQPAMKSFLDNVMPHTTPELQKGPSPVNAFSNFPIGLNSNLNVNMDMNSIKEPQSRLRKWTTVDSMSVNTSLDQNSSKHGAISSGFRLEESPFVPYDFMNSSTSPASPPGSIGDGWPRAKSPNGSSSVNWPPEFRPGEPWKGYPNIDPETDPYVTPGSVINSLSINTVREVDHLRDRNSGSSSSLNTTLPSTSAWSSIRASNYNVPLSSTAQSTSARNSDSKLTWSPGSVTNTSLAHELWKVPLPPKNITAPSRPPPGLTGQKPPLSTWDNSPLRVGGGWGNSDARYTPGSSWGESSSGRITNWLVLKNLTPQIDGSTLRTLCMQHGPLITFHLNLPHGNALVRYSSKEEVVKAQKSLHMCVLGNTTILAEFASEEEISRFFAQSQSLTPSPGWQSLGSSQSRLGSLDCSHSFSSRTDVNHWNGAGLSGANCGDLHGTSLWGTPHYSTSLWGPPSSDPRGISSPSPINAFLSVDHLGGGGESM

Biological target: Argonaute 2 (Ago2) (mouse (endogenous in OT-I CD8+ T cells)) (UniProt Q8CJG0)
Test: co-IP

## GW182 (TNRC6A), longer isoform (from UniProt Q3UHK8)
  binding: no binding

Results are given in words; binding and its absence hold for the method and conditions named. In cells and extracts the contact can be indirect.
